Measured values reported in patent US20080050354A1, “PROTECTING BIOACTIVE FOOD INGREDIENTS USING MICROORGANISMS HAVING REDUCED METABOLIZING CAPACITY” (COMPAGNIE GERVAIS DANONE, priority 2004, published 2008).

Protein sequences, listed by entry. Tags and fused reporters are not part of them. Lines headed by an entry give the natural chain unless they say otherwise; changes in a name come on top.
UniProt P02662: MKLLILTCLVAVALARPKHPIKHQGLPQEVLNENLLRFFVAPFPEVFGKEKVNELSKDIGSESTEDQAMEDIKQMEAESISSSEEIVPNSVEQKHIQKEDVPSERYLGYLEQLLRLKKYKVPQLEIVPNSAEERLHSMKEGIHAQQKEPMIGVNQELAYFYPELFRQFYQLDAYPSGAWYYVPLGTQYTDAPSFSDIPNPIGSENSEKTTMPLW

Test system: strain I-3211
Experiment: Fermentation with variant strain I-3211 lacking the AMI peptide transport system
Design: species or system Streptococcus thermophilus

Q: What does the source list for “peptide αS1 [91-100]: fragment 91-100 of casein αS1; peptide with relaxing properties contained in the milk protein hydrolyzate Lactium® (Ingredia) (YLGYLEQLLR; UniProt P02662 106-115, looked up, fragment)”?
A: consumption of peptide by the variant: does not consume; level of survival of the peptide after fermentation (conditions identical to Table 4 (ingredient 1.5 g/L, stop at pH 4.7)): greater than 85%
